In patent publication US4146614A (State of Michigan, priority 1977, dated 1979) one finds crude yield and isolated yield data, which are given here for two substances.

The nature of this series: Boc solid-phase peptide synthesis; Merrifield resin; dicyclohexylcarbodiimide. To be noted: whole synthesis.

Consider Glycylthreonylvalylleucine, for which the crude yield (hydrochloride salt) is reported as 60% yield.

Substance N-α-acetyl-tyrosylthreonylvalyllleucine came in with an isolated yield (hydrochloride) of 59% yield.
